Measurements published in US10563263B2, “Genetic polymorphisms associated with statin response and cardiovascular diseases, methods of detection and uses thereof” (CELERA CORPORATION, priority 2010, dated 2020).
The source gives many values for each of these; only a part stands here.

Tested on: CHD
Experiment: Meta-analysis of CARE and WOSCOPS combined, synergy index, CHD endpoint
Assay type: in vivo, human
From the text: Tables 4-5 provide meta-analyses of CARE and WOSCOPS combined (2nd section of each table) for two endpoints (CHD and CVD) and three genetic models (dominant, recessive, and additive), as well as logistic regression analyses of CARE (3rd section of each table) and WOSCOPS (4th section of each table) individually.
Tables 12 and 17 provide results of meta-analysis of the CARE and WOSCOPS sample sets combined by direct genotyping and by imputing genotypes.
“P” indicates the p-value, and “P(R)” (or “P.R.”) indicates the p-value random effect. Both of these are p-values corresponding to a statistical test of whether the combined synergy index is equal to one but use different assumptions to derive the p-value. “P” is calculated using a fixed effects model, and “P(R)” is calculated using a random effects model.
“OR” indicates the odds ratio (synergy index) calculated from a fixed effects model, and “OR(R)” (or “OR.R.”) indicates the odds ratio (synergy index) calculated from a random effects model.

[1] = rs4146972 allele T DOMINANT Genotyped
[2] = rs4238087 allele G DOMINANT Imputed
[3] = rs4251569 allele T ADDITIVE Imputed
[4] = rs4251569 allele T DOMINANT Imputed
[5] = rs4273613 allele T ADDITIVE Imputed
[6] = rs4273613 allele T DOMINANT Imputed
[7] = rs4291049 allele T RECESSIVE Imputed
[8] = rs4315598 allele T ADDITIVE Imputed
[9] = rs4315598 allele T GENOTYPIC Imputed
[10] = rs4315598 allele T RECESSIVE Imputed
[11] = rs4321395 allele A DOMINANT Imputed
[12] = rs4321596 allele T RECESSIVE Genotyped
[13] = rs4324417 allele T DOMINANT Imputed
[14] = rs4328619 allele G DOMINANT Genotyped
[15] = rs4338909 allele T ADDITIVE Imputed
[16] = rs4370878 allele G DOMINANT Imputed
[17] = rs4379434 allele T DOMINANT Genotyped
[18] = rs4416407 allele T DOMINANT Imputed
[19] = rs4417899 allele C RECESSIVE Imputed
[20] = rs4442732 allele A ADDITIVE Imputed
[21] = rs4444612 allele G ADDITIVE Imputed
[22] = rs4444612 allele G GENOTYPIC Imputed
[23] = rs4444612 allele G RECESSIVE Imputed
[24] = rs4450660 allele C DOMINANT Imputed
[25] = rs4509702 allele C DOMINANT Imputed
[26] = rs4526920 allele G GENOTYPIC Imputed
[27] = rs4533145 allele T DOMINANT Imputed
[28] = rs4557006 allele A DOMINANT Imputed
[29] = rs4570530 allele C DOMINANT Imputed
[30] = rs4615971 allele C DOMINANT Imputed
[31] = rs4628119 allele A DOMINANT Imputed
[32] = rs4664443 allele G ADDITIVE Imputed
[33] = rs4688259 allele T DOMINANT Imputed
[34] = rs4688632 allele G RECESSIVE Imputed
[35] = rs4695284 allele A ADDITIVE Imputed
[36] = rs4700302 allele A ADDITIVE Imputed
[37] = rs4702720 allele A ADDITIVE Imputed
[38] = rs4702720 allele A DOMINANT Imputed
[39] = rs4711091 allele G GENOTYPIC Genotyped
[40] = rs4714484 allele A ADDITIVE Imputed
[41] = rs4736802 allele G DOMINANT Imputed
[42] = rs4760785 allele A ADDITIVE Imputed
[43] = rs4760785 allele A DOMINANT Imputed
[44] = rs4760785 allele A GENOTYPIC Imputed
[45] = rs4760894 allele T ADDITIVE Imputed
[46] = rs4760894 allele T DOMINANT Imputed

CC[C@H](C)C(=O)O[C@H]1C[C@H](O)C=C2C=C[C@H](C)[C@H](CC[C@@H](O)C[C@@H](O)CC(=O)O)[C@H]21 [Pravastatin, pravastatin]
OR(R) (rs4076201 allele G RECESSIVE Imputed): 2.9721 | OR [1]: 1.4758 | OR(R) [1]: 1.4758 | OR [2]: 0.6487 | OR(R) [2]: 0.6459 | Meta-analysis OR (rs4243071 allele G vs A (ref)): 0.43 | OR [3]: 0.6585 | OR(R) [3]: 0.6585 | OR [4]: 0.6487 | OR(R) [4]: 0.6458 | OR [5]: 0.2451 | OR(R) [5]: 0.2451 | OR [6]: 0.2509 | OR(R) [6]: 0.2509 | OR [7]: 0.5605 | OR(R) [7]: 0.5605 | OR [8]: 1.369 | OR(R) [8]: 1.369 | OR [9]: 1.9445 | OR(R) [9]: 1.9445 | OR [10]: 1.6981 | OR(R) [10]: 1.6981 | OR [11]: 0.5856 | OR(R) [11]: 0.5856 | OR [12]: 2.3233 | OR(R) [12]: 2.3233 | OR [13]: 1.6531 | OR(R) [13]: 1.6531 | OR [14]: 0.6704 | OR(R) [14]: 0.6704 | OR [15]: 1.3842 | OR(R) [15]: 1.3842 | OR [16]: 1.5785 | OR(R) [16]: 1.5785 | OR [17]: 1.6163 | OR(R) [17]: 1.6163 | OR [18]: 1.6929 | OR(R) [18]: 1.6929 | OR [19]: 0.5892 | OR(R) [19]: 0.5892 | OR [20]: 0.6531 | OR(R) [20]: 0.6531 | OR [21]: 1.3768 | OR(R) [21]: 1.3768 | OR [22]: 1.9589 | OR(R) [22]: 1.9589 | OR [23]: 1.7015 | OR(R) [23]: 1.7015 | OR [24]: 1.5918 | OR(R) [24]: 1.5918 | OR [25]: 1.5785 | OR(R) [25]: 1.5785 | OR [26]: 2.2431 | OR(R) [26]: 2.2431 | OR [27]: 0.5529 | OR(R) [27]: 0.5529 | OR [28]: 0.5972 | OR(R) [28]: 0.5972 | OR [29]: 1.5785 | OR(R) [29]: 1.5785 | OR [30]: 1.5635 | OR(R) [30]: 1.5635 | Meta-analysis OR (rs4626316 allele A vs G (ref)): 0.35 | OR [31]: 0.6205 | OR(R) [31]: 0.6205 | OR [32]: 0.7086 | OR(R) [32]: 0.7086 | OR [33]: 1.6935 | OR(R) [33]: 1.6935 | OR [34]: 0.5987 | OR(R) [34]: 0.5987 | Meta-analysis OR (rs4689078, A1 (non-ref) G, A2 (ref) A): 1.27 | OR [35]: 1.894 | OR(R) [35]: 1.894 | OR [36]: 0.5243 | OR(R) [36]: 0.5243 | OR [37]: 0.6414 | OR(R) [37]: 0.6414 | OR [38]: 0.5989 | OR(R) [38]: 0.5989 | OR [39]: 1.8967 | OR(R) [39]: 1.8967 | OR [40]: 0.6276 | OR(R) [40]: 0.6276 | Meta-analysis OR (rs4726711 allele G vs A (ref)): 0.71 | OR [41]: 1.6304 | OR(R) [41]: 1.6304 | OR [42]: 0.7392 | OR(R) [42]: 0.7392 | OR [43]: 0.6285 | OR(R) [43]: 0.6285 | OR [44]: 0.574 | OR(R) [44]: 0.574 | OR [45]: 0.7392 | OR(R) [45]: 0.7392 | OR [46]: 0.6285 | OR(R) [46]: 0.6285 | OR (rs4760894 allele T GENOTYPIC Imputed): 0.574
